Data reported in patent US7482321B2, “Extended glucagon-like peptide-1 analogs” (Eli Lilly and Company, priority 2002, dated 2009).
Not every detail of the peptide structures is certain; ends, links or a residue may be inferred. Ends that are not written are not given here.

Test system: insulin
Test: Dog hyperglycemic clamp study, insulin change
Type: in vivo, dogs
Details: dog hyperglycemic (150 mg/dL) clamp, last 30 min of infusion, mean ± SEM
[1] = infusion rate 1 pmol/kg/min i.v.
[2] = infusion rate 3 pmol/kg/min i.v.

Substance	Pharmacodynamics (insulin change AUC) [1] [mU·min/mL]	Pharmacodynamics (insulin change AUC) [2] [mU·min/mL]
HVEGTFTSDVSSYLEEQAAKEFIAWLIKGGPSSGDPPPS [Compound 2]	1.5 ± 0.5	3.7 ± 1.7
HVEGTFTSDVSSYLEEQAAKEFIAWLIKGGPSSGDPPPS-NH2 [Compound 1]	2.8 ± 1.0	5.5 ± 2.1
